Results as given in PubChem BioAssay AID2685 (National Center for Advancing Translational Sciences (NCATS), 2010).
The list shows a part of the results. Further columns of the screen follow, without active or inactive calls. The list favours compounds with an active or inconclusive main result. Potencies come from curve fits of mixed quality, noted in brackets.

Assay: qHTS Assay for Lipid Storage Modulators in Drosophila S3 Cells;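 on cell number change: cells counted by Cell Tracker Red CMTPX staining in the red channel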
Conditions: BODIPY lipid droplet fluorescence, 18-24 h; for cell number change: measured here: cell count max response, cells fed with added oleic acid
Method in brief: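 Drosophila S3 cells loaded with oleic acid (400 uM, as added) and compounds at several concentrations; lipid droplets imaged by 488-nm laser-scanning cytometry, 500–530 nm intensity and object ratio to cell channel. Percent activity normalized to 20 uM Triacsin C.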

[1] = measured here: lipid fluorescence (Fed channel) AC50, cells fed with added oleic acid
[2] = measured here: cell number channel AC50, cells fed with added oleic acid

| SMILES | cell number change | AC50 [1] | AC50 [2] |
| --- | --- | --- | --- |
| FC(F)(F)c1ccc(NC2=NCCCS2)cc1 | -8.45% | – | – |
| O=C(c1cc([N+](=O)[O-])ccc1N1CCNCC1)N1CCOCC1 | -4.68% | 0.0731 µM [rising, full curve, poor fit] | – |
| CC(C)c1oc(=O)cc2c1[C@@H](O)[C@H]1OC(=O)[C@@]3(C)CC[C@@H](O)[C@@]2(C)C13 (some centres undefined) | -20.5% | 9.2 µM [falling, partial curve] | – |
| C[N+]1=C(/C=C/Nc2ccccc2)C(C)(C)c2ccccc21 | -36% | 23.1 µM [falling, partial curve, poor fit] | 8.2 µM [falling, partial curve, poor fit] |
| CCOc1ccc(N2C(=O)NC(=O)/C(=C\c3cc(OC)c(OC)cc3[N+](=O)[O-])C2=O)cc1 | -7.41% | 4.61 µM [falling, full curve] | – |
| CCC(=Nc1ccccc1NC(C)=O)c1c(O)n(C)c(=O)n(C)c1=O | -140% | 0.58 µM [falling, single point] | 18.4 µM [falling, partial curve] |
| Cc1nn(Cc2ccccc2)c(Cl)c1C(=O)NC1CCCc2ccccc21 (centres undefined) | -24.1% | 20.6 µM [falling, single point] | – |
| O=C(COc1ccc(Cl)cc1)NCCc1cnc[nH]1 | 46.5% | – | 32.6 µM [rising, partial curve, poor fit] |
| Cc1ccccc1N1C(=O)NC(=O)/C(=C\c2cc(Br)c(N3CCOCC3)o2)C1=O | -31.5% | – | 8.2 µM [falling, partial curve, poor fit] |
| CCN(CC)C(=O)c1ccc(NC(=O)c2cccc(C(F)(F)F)c2)cc1 | 58% | – | – |
| CC(=NCC1CCCO1)c1c(O)n(Cc2ccccc2)c(=O)[nH]c1=O (centres undefined) | 48.8% | 16.4 µM [rising, partial curve, poor fit] | 14.6 µM [rising, partial curve, poor fit] |
| O=C(O)c1cc2ccccc2oc1=O | 8.24% | 0.13 µM [falling, full curve] | – |
| COC(=O)C1=C(c2ccc(F)cc2OCc2ccccc2)C[C@@H]2CC[C@H]1N2C(=O)NCCOc1ccccc1 | -6.51% | – | 7.31 µM [falling, single point] |
| COC(=O)c1c(C)n(Cc2ccco2)c2ccc(O)cc12 | 20.2% | 6.51 µM [rising, single point] | – |
| Cc1cccc(N2C(=O)NC(=O)/C(=C/c3ccc(N4CCOCC4)cc3)C2=O)c1 | 61.2% | 2.91 µM [falling, single point] | – |
| N=c1c2c(n(Cc3ccc(Cl)cc3Cl)c3c1CCC3)CCCC2 | -47.7% | – | 29.1 µM [falling, single point] |
| c1ccc(CC2CCCCN2)cc1 (centres undefined) | 14.8% | 13 µM [rising, partial curve] | – |
| COC(=O)C1=C(c2cccc3c2S(=O)(=O)c2ccccc2-3)C[C@@H]2CC[C@H]1N2C(=O)N1CCc2cc(OC)c(OC)cc2C1 | -47.3% | 29.1 µM [falling, single point] | 0.103 µM [falling, full curve, poor fit] |
| S=P(Nn1cnnc1)(c1ccc(Br)cc1)c1ccc(Br)cc1 | -60.4% | 29.1 µM [falling, single point] | 29.1 µM [falling, single point] |
| Cc1cc(/C=C2\C(=O)NC(=O)N(c3cccc(F)c3)C2=O)c(C)n1-c1cc(C(=O)O)cc(C(=O)O)c1 | -41.3% | 0.0058 µM [falling, full curve, poor fit] | – |
| O=Cc1cn(Cc2ccccc2F)c2ccccc12 | -17.5% | 23.1 µM [falling, single point] | – |
| N#CC1(c2ccccc2)CCN(C2CC(=O)N(c3ccc(F)cc3)C2=O)CC1 (centres undefined) | -130% | – | – |
| Cc1ccsc1CNCCc1ccccc1F | -18.4% | – | – |
| COc1cc(C(C#N)N2CCCCC2)ccc1O (centres undefined) | – | – | 4.61 µM [falling, full curve] |
| CC(=O)OC1N=C(c2ccccc2)c2ccccc2NC1=O (centres undefined) | -2.07% | – | – |
| CC(C)N1CCN(c2ccc(O)cc2)CC1 | 36.7% | 29.1 µM [rising, single point] | 18.4 µM [rising, single point] |
| COc1ccc(CCNCc2sccc2C)cc1OC | -6.95% | – | – |
| O=C(NCCCn1ccnc1)C(Cl)(Cl)Cl | 16.9% | 0.0058 µM [falling, full curve, poor fit] | – |
| COc1ccccc1N1CCN(Cc2c(F)cccc2Cl)CC1 | -13.1% | 0.0058 µM [falling, full curve, poor fit] | – |
| Oc1cc(O)cc(/C=C/c2ccc(O)cc2O)c1 | -31.2% | – | 29.1 µM [falling, single point] |

A different layout for some results above.
SMILES | cell number change | AC50 [1] | AC50 [2]
S=P(Nn1cnnc1)(c1ccc(Br)cc1)c1ccc(Br)cc1 | -60.4% | 29.1 µM [falling, single point] | 29.1 µM [falling, single point]
Cc1cc(/C=C2\C(=O)NC(=O)N(c3cccc(F)c3)C2=O)c(C)n1-c1cc(C(=O)O)cc(C(=O)O)c1 | -41.3% | 0.0058 µM [falling, full curve, poor fit] | –
